Results on four substances are retold here after PMC7682018.

The chains behind the UniProt entries cited, without tags or fusion partners. Where a name states a change or a piece, a line headed by the entry shows the natural chain unless it says otherwise. Residues count along the entry.
UniProt P07766, residues 23-207: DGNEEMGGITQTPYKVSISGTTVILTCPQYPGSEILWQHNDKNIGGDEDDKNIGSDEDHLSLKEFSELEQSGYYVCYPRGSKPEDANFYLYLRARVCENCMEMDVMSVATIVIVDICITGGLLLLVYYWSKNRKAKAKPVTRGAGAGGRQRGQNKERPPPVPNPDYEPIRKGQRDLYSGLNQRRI
UniProt P06239: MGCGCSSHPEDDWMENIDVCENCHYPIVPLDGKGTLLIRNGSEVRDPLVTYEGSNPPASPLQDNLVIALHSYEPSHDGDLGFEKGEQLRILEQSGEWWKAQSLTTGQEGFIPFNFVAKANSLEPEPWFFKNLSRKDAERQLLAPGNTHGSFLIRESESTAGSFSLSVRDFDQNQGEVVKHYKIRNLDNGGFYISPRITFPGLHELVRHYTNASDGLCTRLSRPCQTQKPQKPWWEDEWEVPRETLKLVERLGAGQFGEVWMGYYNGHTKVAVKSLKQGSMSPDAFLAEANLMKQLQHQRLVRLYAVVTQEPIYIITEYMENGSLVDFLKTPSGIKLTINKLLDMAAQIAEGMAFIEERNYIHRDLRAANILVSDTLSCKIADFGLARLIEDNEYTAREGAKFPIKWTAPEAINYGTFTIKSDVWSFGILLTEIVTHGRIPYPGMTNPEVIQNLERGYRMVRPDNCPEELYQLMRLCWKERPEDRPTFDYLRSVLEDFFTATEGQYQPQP
UniProt P06240: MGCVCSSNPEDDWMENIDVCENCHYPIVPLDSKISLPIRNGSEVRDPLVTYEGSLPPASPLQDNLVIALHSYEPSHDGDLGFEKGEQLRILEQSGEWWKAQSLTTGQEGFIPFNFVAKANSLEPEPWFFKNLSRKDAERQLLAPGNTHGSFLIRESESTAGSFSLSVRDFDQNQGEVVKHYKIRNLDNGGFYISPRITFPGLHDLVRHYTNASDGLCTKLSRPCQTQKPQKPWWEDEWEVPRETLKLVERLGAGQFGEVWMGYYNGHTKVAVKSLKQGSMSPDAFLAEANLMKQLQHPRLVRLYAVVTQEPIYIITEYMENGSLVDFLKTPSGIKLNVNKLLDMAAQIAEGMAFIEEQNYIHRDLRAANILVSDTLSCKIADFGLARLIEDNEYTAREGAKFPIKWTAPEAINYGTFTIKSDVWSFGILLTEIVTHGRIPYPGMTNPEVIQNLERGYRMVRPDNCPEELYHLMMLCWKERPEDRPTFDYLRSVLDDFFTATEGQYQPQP

No constants are given. Whether binding was seen depends on the method and setting. Binding seen in cells or lysates may run through a third protein. Some results given as binding are weak or reduced against the parent protein; the word gives no strength.

Assay [1] concerns the target CD3ε chain of the TCR/CD3 complex (human, Jurkat) (human (endogenous in Jurkat)) (UniProt P07766). Description: proximity ligation; in situ PLA (Duolink) between CD3ε and Lck in fixed, permeabilised J.Lck cells stably expressing Lck^wt or Lck^Y192E; cells unstimulated, stimulated with TCR antibody C305 or with 1 mM pervanadate for 5 min at 37 °C; signal means a distance smaller than 80 nm.

In assay [2] the target is T1, CD45 protein tyrosine phosphatase (mouse) (mouse (endogenous in thymocytes)) (UniProt P06800).
T1 sequence: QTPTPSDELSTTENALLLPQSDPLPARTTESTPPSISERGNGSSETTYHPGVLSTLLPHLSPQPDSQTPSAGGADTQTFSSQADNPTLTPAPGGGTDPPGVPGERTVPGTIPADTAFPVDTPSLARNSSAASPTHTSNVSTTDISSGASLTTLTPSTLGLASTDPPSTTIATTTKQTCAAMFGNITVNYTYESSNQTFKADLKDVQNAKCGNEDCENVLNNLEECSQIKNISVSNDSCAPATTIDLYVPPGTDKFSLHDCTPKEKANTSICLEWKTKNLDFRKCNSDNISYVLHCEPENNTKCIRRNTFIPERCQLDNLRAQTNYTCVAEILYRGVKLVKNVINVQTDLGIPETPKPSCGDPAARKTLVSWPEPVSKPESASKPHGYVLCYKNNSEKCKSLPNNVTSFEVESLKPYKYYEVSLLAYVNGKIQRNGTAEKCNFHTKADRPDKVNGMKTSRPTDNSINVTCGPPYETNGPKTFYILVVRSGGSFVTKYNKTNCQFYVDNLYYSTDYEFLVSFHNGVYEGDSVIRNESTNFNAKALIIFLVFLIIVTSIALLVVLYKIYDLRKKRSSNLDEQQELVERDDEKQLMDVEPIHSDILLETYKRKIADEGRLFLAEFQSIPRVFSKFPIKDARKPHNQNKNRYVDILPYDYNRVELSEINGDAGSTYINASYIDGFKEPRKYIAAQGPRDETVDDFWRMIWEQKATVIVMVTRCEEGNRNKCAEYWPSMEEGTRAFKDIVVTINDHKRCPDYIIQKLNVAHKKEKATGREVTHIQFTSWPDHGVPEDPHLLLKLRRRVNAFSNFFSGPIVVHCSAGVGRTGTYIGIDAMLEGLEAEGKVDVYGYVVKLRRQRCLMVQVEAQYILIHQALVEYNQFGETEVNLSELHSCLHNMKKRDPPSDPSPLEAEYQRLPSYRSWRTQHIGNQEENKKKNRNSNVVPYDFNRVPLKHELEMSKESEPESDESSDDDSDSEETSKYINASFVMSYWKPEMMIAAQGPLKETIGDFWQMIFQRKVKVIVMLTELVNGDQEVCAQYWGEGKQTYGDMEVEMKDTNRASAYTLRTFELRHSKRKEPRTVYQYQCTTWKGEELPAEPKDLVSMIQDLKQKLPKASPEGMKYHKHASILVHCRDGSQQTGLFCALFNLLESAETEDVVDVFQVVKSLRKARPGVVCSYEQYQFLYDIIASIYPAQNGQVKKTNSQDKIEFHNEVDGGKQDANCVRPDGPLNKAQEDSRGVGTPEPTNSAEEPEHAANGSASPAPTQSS
The assay is described as follows: co-IP; CD45 immunoprecipitated overnight at 4 °C from thymocyte lysates (1% Brij 58, 150 mM NaCl, 150 mM Tris-HCl) in 96-well plates coated with CD45 antibody 30-F11; associated Lck detected with an Lck antibody and alkaline-phosphatase-coupled anti-mouse antibody in a plate reader (ELISA read-out), normalised to Lck in the input. (In an ELISA, binding on a coated surface is turned into a signal by an enzyme label.)

In the case of “p56Lck Y192E, re-expressed in J.Lck cells (from UniProt P06239 1-509) (enzyme)”, the binding result in assay [1] is recorded as “binds”.

For the substance “p56Lck, wild type (mouse) (from UniProt P06240 1-509) (enzyme)”, in assay [2], the binding entry was “binds”.

Regarding “p56Lck Y192E, phosphomimetic knock-in mutant (mouse) (from UniProt P06240 1-509) (enzyme)”, in assay [2], the binding result is on record as “binds”.

Take “p56Lck, wild type, re-expressed in J.Lck cells (from UniProt P06239 1-509) (enzyme)”: the binding entry in assay [1] is “binds”.
